Measurements reported in PubChem BioAssay AID686943 (Drosophila RNAi Screening Center, 2013)
Assay: 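Fly genes whose loss alters ERK activation after insulin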 (primary screen). Cell system: Drosophila S2R+ haemocyte-like cells expressing YFP-tagged ERK (Rolled). Reagent: long dsRNA against Drosophila genes. Conditions: insulin stimulation versus unstimulated cells; dose and duration not given. Read-out: 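Antibody staining for doubly phosphorylated ERK divided by ERK-YFP signal, as plate z-scores, in insulin-treated and untreated cells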. Direction: replicate 1, z-score of dpERK with insulin and replicate 2, z-score of dpERK with insulin: higher = more active ERK per ERK-YFP after insulin.
The deposit covers about 23,000 reagents; this is a random part of those that have a named target and a result. 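Extra replicates exist only for a retested subset of genes; insulin dose and duration not given; both raised and lowered dpERK matter.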 The numbers tell different reagents against one gene apart. Names joined by + are all predicted targets of the reagent. Further read-outs or replicates are left out here. Not stated in the record: the amount of reagent, the time to read-out.

gene,dsRNA no.,"replicate 1, z-score of dpERK with insulin","replicate 2, z-score of dpERK with insulin"
Srrm1 (GeneID 39483),1,-0.5,0.08
CG5326 (GeneID 42655),1,0.43,-0.54
CG5326 (GeneID 42655),2,-0.17,-0.39
retm (GeneID 33899),1,-0.03,-0.14
CG31087 (GeneID 43062),1,-0.21,-0.01
Dpy-30L1 (GeneID 34480),1,0.32,0.03
trp (GeneID 43542),1,0.04,-0.06
azot (GeneID 35751),1,0.59,0.83
DIP-beta (GeneID 33125),1,-0.8,-0.62
DIP-beta (GeneID 33125),2,0.32,-0.58
DIP-beta (GeneID 33125),3,0.29,0.33
DIP-beta (GeneID 33125),4,0.44,0.76
CG11679 (GeneID 32515),1,-0.49,0.07
ewg (GeneID 30975),1,2.03,0.5
SLIRP1 + anox,1,-0.32,1.26
CG42811 (GeneID 10178941),1,0.28,0
Ugt49C1 (GeneID 37421),1,-0.31,-0.07
DIP-epsilon (GeneID 7354433),1,1.61,1.94
DIP-epsilon (GeneID 7354433),2,-0.08,0.47
pn (GeneID 31194),1,-0.62,-0.43
betaNACtes4 (GeneID 32389),1,-1.01,-0.41
Rsph4a (GeneID 37831),1,-0.08,0.45
Obp83cd (GeneID 40746),1,0.21,-0.79
CG43331 (GeneID 12798459),1,0.68,0.12
spdi (GeneID 31004),1,0.34,0.16
spdi (GeneID 31004),2,-0.02,-0.9
Bcat (GeneID 32297),1,-0.08,0.12
CG10555 (GeneID 31771),1,-0.17,0.32
CG42383 (GeneID 37897),1,1.27,1.34
CG5339 (GeneID 37794),1,0.61,-0.18
ATPsynbetaL (GeneID 39761),1,-1.07,0.02
CG18473 (GeneID 41116),1,-0.7,0.96
Dtd (GeneID 41371),1,0.16,0.36
CG15615 (GeneID 36882),1,-1.83,-2.47
Fst (GeneID 41169),1,0.04,0.08
rdhB (GeneID 42614),1,-0.51,-0.7
CG9812 (GeneID 37709),1,-0.47,-0.09
CG13634 (GeneID 42951),1,-0.6,0.25
Hex-t2 (GeneID 43191),1,0.12,-0.46
CG6415 (GeneID 34474),1,0.9,0.74
Zip89B (GeneID 41975),1,0.2,0.49
fipi (GeneID 33676),1,0.31,0.97
Tsp42Eh (GeneID 35617),1,-0.73,0.23
CG32712 (GeneID 318165),1,-0.65,-0.22
Cda9 (GeneID 36934),1,-0.55,0.52
Creld (GeneID 33166),1,-0.75,-0.14
CG17230 (GeneID 41376),1,0.38,0.09
eIF4E1 (GeneID 45525),1,-1.23,-0.71
lectin-33A (GeneID 53516),1,0.3,0.09
lectin-33A (GeneID 53516),2,-1.46,0.01
CG4714 (GeneID 36470),1,0.15,0.02
aPKC (GeneID 47594),1,0.05,0.19
aPKC (GeneID 47594),2,0.5,0.97
CG13460 (GeneID 39638),1,0.3,-0.7
CG32579 (GeneID 318096),1,-0.28,-0.13
HLH54F (GeneID 37027),1,-0.44,-1.34
lz (GeneID 31883),1,-2.87,0.66
lz (GeneID 31883),2,-1.18,-1.74

Entries above whose gene name starts with L or l:
gene,dsRNA no.,"replicate 1, z-score of dpERK with insulin","replicate 2, z-score of dpERK with insulin"
lectin-33A (GeneID 53516),1,0.3,0.09
lectin-33A (GeneID 53516),2,-1.46,0.01
lz (GeneID 31883),1,-2.87,0.66
lz (GeneID 31883),2,-1.18,-1.74
